Results reported in publication doi:10.1101/2024.12.16.628704.

Sequences of proteins named here, by UniProt entry; tags and fusion partners are left off. A change or cut given only in a name is not applied to a line headed by its entry. Residues count along the entry.
UniProt Q9NNX6: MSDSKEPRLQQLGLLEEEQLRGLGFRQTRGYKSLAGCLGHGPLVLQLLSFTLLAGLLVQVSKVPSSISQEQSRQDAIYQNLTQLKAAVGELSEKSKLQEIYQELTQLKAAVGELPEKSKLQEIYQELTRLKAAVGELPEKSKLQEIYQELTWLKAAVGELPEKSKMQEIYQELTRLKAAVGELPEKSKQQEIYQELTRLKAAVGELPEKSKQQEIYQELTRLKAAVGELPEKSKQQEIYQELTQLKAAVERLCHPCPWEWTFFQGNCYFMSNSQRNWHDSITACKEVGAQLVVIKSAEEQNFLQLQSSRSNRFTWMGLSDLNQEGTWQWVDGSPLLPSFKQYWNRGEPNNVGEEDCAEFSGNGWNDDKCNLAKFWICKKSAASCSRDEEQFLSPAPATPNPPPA
UniProt P31994, residues 43-217: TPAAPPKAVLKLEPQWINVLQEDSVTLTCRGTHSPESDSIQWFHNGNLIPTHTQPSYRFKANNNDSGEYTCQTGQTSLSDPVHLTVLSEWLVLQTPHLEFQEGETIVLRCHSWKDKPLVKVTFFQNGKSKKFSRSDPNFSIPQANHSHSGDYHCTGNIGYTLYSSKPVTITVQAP

Target: DC-SIGN covalently coupled to an SPR chip (UniProt Q9NNX6)
Assay: SPR

Question: With “recombinant FcγRIIB ectodomain (from UniProt P31994 43-217) (domain or fragment)” as the substance, how does the binding read?
Answer: binds

No constants are given. Whether binding was seen depends on the method and setting. A result given as binding can be weak or reduced; the word gives no strength.
